In PMC7710684:
No constants are given. Whether binding was seen depends on the method and setting.

Chains of the proteins cited; added tags and fusions are not shown. Residues count along the entry.
UniProt P02769, residues 25-607: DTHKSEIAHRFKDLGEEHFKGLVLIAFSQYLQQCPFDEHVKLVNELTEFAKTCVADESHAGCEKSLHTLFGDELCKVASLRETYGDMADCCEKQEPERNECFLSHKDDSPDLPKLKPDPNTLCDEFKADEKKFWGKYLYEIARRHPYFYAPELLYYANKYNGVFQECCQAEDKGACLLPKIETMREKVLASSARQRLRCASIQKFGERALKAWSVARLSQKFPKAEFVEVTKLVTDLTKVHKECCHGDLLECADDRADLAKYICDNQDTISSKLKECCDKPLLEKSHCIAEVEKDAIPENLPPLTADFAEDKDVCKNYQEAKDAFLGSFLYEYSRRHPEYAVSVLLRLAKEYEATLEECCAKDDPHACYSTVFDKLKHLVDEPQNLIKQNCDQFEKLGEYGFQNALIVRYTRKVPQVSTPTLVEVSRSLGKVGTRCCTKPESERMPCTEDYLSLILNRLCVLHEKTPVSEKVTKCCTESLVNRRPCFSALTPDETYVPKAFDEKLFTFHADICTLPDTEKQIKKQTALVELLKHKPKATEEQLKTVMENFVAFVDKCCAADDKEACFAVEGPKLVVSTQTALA

Tests used:
[1] = target: BSA (bovine (from the name BSA)) (UniProt P02769); assay: ELISA; human C1q (0-1.5 µg/ml) or BSA coated in carbonate buffer pH 9.6; 40 nM His-tagged rTsCRT or fragment in 20 mM Tris-HCl pH 7.4, 50 mM NaCl, 1 mM CaCl2, 1 h room temperature; anti-His detection; both purified
[2] = target: BSA (bovine (from the name BSA)) (UniProt P02769); assay: far-Western, overlay or dot blot; 5 µg human C1q and 5 µg BSA on 12% SDS-PAGE, on nitrocellulose; 5 µg/ml rTsCRT or fragment in binding buffer with 1 mM CaCl2, 37°C, 2 h; anti-His detection; both purified

## recombinant full-length Trichinella spiralis calreticulin (TsCRT, 22-413 aa) (from UniProt A0ABR3K4E4)
[1]
  binding: no binding (tested: 40 nM)
[2]
  binding: no binding (tested: 5 µg/ml)
